Measured values reported in PMC11643816.
For some assays here: Construct, isoform or probe ends are uncertain for at least one entry. Whether high values mean tight binding is not given here for every scale.

Chains of the proteins cited; added tags and fusions are not shown. Residues count along the entry.
UniProt P02754, 17-178: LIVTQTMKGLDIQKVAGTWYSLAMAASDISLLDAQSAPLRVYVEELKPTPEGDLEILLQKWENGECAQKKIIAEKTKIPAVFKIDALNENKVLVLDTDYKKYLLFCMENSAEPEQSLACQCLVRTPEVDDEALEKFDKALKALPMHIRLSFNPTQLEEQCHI
UniProt P02769, 25-607: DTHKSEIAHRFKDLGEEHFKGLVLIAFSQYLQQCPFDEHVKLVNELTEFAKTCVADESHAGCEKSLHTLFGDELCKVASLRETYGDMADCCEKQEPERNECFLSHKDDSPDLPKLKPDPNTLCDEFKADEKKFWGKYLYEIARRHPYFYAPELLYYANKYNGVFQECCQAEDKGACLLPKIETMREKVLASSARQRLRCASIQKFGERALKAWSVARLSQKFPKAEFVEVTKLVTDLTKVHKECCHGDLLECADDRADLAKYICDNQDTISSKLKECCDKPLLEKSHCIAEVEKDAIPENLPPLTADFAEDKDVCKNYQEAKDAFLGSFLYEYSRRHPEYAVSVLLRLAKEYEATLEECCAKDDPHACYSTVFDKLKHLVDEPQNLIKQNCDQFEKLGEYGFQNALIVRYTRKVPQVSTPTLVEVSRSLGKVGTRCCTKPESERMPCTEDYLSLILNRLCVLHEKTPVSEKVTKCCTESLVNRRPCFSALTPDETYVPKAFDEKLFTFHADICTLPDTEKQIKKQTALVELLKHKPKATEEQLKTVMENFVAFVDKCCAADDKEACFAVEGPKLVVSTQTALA

Columns and labels:
[1] = biological target: beta-lactoglobulin (UniProt P02754); assay: QCM bond rupture sandwich; settings: 100 ng/mL, sandwich with aptamer II beads; 5'-SH-(CH2)6; 30 °C, 70 min per binding step; aptamer I 3 μmol/L on gold with MCH block; aptamer II beads stored in 10 mmol/L PBS; binding buffer, salt and pH not stated; single-stranded DNA; counted as no binding
[2] = biological target: bovine serum albumin (BSA) (bovine) (UniProt P02769); assay: QCM bond rupture sandwich; settings: 100 ng/mL, sandwich with aptamer II beads; 5'-SH-(CH2)6; 30 °C, 70 min per binding step; aptamer I 3 μmol/L on gold with MCH block; aptamer II beads stored in 10 mmol/L PBS; binding buffer, salt and pH not stated; single-stranded DNA; counted as no binding

## TGGTGCTGCCCCTAGTCTCCGGCTGCTTCTTGG [aptamer I]
[1]
  binding signal (% of LF signal): 9.66
[2]
  binding signal (% of LF signal): 8.9
